This assay concerns HepG2. The experiment in a line: Cytotoxicity against human HepG2 cells assessed as growth inhibition after 72 hrs by MTT assay. It counts as functional, cell-based. Conditions: HepG2, 72 h. A general note: Formazan colour is commonly taken as a measure of viable cells.

SMILES strings stand for the structures.

The IC50 is the midpoint of a concentration-inhibition curve. With `COc1cccc2c1C(=O)c1c(O)c3c(c(O)c1C2=O)C[C@@](O)(C(=O)CO)C[C@@H]3O[C@H]1C[C@H](N)[C@H](O)[C@H](C)O1` [DOXORUBICIN], the IC50 was 720 nM.

Values taken from ChEMBL document CHEMBL3779773, “A unique macrolactam derivative via a [4+6]-cycloaddition from Streptomyces niveus” (Bioorg Med Chem Lett, 2016).
